These results are taken from the supplement of paper PMC10735217.

Molecules are shown by their SMILES. Counter-ions that a name gives are not always drawn. Some of the results follow. Repeats in this data set agree poorly, so a single value says little.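 The human kidney-derived cells carry a stably integrated construct of eight TEAD-binding elements driving luciferase, read by luminescence in a drug-repurposing library screen. A compound counts as a hit when its signal is more than five robust Z scores above the plate mean.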

The subject of the experiment is HEK293A TEAD-LUC reporter. Put plainly: TEAD-luciferase reporter activity (YAP activation), robust Z score vs plate; higher = stronger YAP/TEAD activation. To be noted: 24 h. Background: A reporter such as luciferase makes a cellular process visible.

For `Cn1nnnc1SCC1=C(C(=O)O)N2C(=O)[C@@H](NC(=O)CSC(F)(F)F)[C@H]2SC1` [Cefazaflur], the TEAD-luciferase reporter activity runs as follows: (compound concentration: 200 nM) inactive: 1.18; (compound concentration: 2 uM) inactive: 2.16; (compound concentration: 10 uM) inactive: -0.979.

On to `NC(=O)c1ccn(-c2cnc(NC[C@]3(c4ncccc4F)C[C@H](F)C3)nc2)c1`, for which the TEAD-luciferase reporter activity (compound concentration: 200 nM) is inactive: 0.888, the TEAD-luciferase reporter activity (compound concentration: 2 uM) is inactive: -0.0643 and the TEAD-luciferase reporter activity (compound concentration: 10 uM) is inactive: -0.968.

In the case of `C=CCNC1=C2C[C@@H](C)C[C@H](OC)[C@H](O)[C@@H](C)/C=C(\C)[C@H](OC(N)=O)[C@@H](OC)/C=C\C=C(/C)C(=O)NC(=CC1=O)C2=O` [Tanespimycin], the TEAD-luciferase reporter activity (compound concentration: 2 uM) is inactive: -1.96.

`C=CCNC1=C2C[C@@H](C)C[C@H](OC)[C@H](O)[C@@H](C)/C=C(\C)[C@H](OC(N)=O)[C@@H](OC)/C=C\C=C(/C)C(=O)NC(=CC1=O)C2=O` [17-AAG (Tanespimycin)]: the TEAD-luciferase reporter activity reads like this: (compound concentration: 200 nM) inactive: 3.02; (compound concentration: 10 uM) inactive: 0.106.

In the case of `CCN1CCN(C(=O)N[C@@H](C(=O)N[C@@H]2C(=O)N3[C@@H]2SC(C)(C)[C@@H]3C(=O)[O-])c2ccccc2)C(=O)C1=O`, the TEAD-luciferase reporter activity is, setting by setting: (compound concentration: 200 nM) inactive: -1.12; (compound concentration: 10 uM) inactive: 0.925.

`CCN1CCN(C(=O)N[C@@H](C(=O)N[C@@H]2C(=O)N3[C@@H]2SC(C)(C)[C@@H]3C(=O)[O-])c2ccccc2)C(=O)C1=O` [Piperacillin sodium]: the TEAD-luciferase reporter activity (compound concentration: 2 uM) was inactive: 2.02.

`C=CCOc1ccccc1OCC(O)CNC1CCC(N2CCNC2=O)CC1` (stereo not given): the TEAD-luciferase reporter activity (compound concentration: 200 nM) is inactive: 0.401, the TEAD-luciferase reporter activity (compound concentration: 2 uM) was inactive: -0.668 and the TEAD-luciferase reporter activity (compound concentration: 10 uM) is inactive: 1.57.

Consider `NC(=O)N1c2ccccc2C=Cc2ccccc21` [Carbamazepine298-46-4], for which the TEAD-luciferase reporter activity by setting is: (compound concentration: 200 nM) inactive: -0.967; (compound concentration: 10 uM) inactive: 1.14.

On to `NC(=O)N1c2ccccc2C=Cc2ccccc21` [carbamazepine, Elan PharmaZome], for which the TEAD-luciferase reporter activity (compound concentration: 2 uM) is inactive: -0.572.

With `Cn1cc(NC(=O)c2cc(NC(=O)c3ccc(/C=C/c4cnc5ccccc5c4)cc3)cn2C)cc1C(=O)NCCN1CCOCC1`, the TEAD-luciferase reporter activity is inactive: 2.4 (compound concentration: 200 nM), inactive: 2.6 (compound concentration: 2 uM) and active: 14.7 (compound concentration: 10 uM).

On to `CNC(=O)[C@@H](CCC(=O)OC)NC(=O)[C@@H](CC(C)C)C(CSc1ccc(O)cc1)C(=O)NO` (stereo not given in full), for which the TEAD-luciferase reporter activity by setting is: (compound concentration: 200 nM) inactive: -0.428; (compound concentration: 2 uM) inactive: -0.708; (compound concentration: 10 uM) inactive: 0.385.

As for `CCn1ccc(NS(=O)(=O)c2ccc(N)cc2)nc1=O`, the TEAD-luciferase reporter activity runs as follows: (compound concentration: 200 nM) inactive: 0.729; (compound concentration: 2 uM) inactive: 0.694; (compound concentration: 10 uM) inactive: 1.43.

On to `Cc1ccc(OC[C@H](O)[C@H](C)NC(C)C)c2c1CCC2`, for which the TEAD-luciferase reporter activity by setting is: (compound concentration: 200 nM) inactive: 0.451; (compound concentration: 2 uM) inactive: 0.573; (compound concentration: 10 uM) inactive: -0.251.

For `CC(NCCC(c1ccccc1)c1ccccc1)c1ccccc1` (stereo not given) [Fendiline (hydrochloride)], for the setting “compound concentration: 2 uM”, the TEAD-luciferase reporter activity is inactive: -0.829.

Regarding `CC(NCCC(c1ccccc1)c1ccccc1)c1ccccc1` (stereo not given) [Fendiline hydrochloride], the TEAD-luciferase reporter activity (compound concentration: 200 nM) is inactive: 0.518 and the TEAD-luciferase reporter activity (compound concentration: 10 uM) was inactive: 2.77.

For `O=C(O)COCCN1CCN(C(c2ccc(F)cc2)c2ccc(F)cc2)CC1` [Efletirizine], the TEAD-luciferase reporter activity by setting is: (compound concentration: 200 nM) inactive: 1.98; (compound concentration: 2 uM) inactive: -0.709; (compound concentration: 10 uM) active: 6.2.

On to `CC(=O)O[C@@H]1[C@H](OC(C)=O)[C@@H](CO)O[C@H]1n1c(=O)sc2cnc(N)nc21`, for which the TEAD-luciferase reporter activity runs as follows: (compound concentration: 200 nM) inactive: -1.62; (compound concentration: 2 uM) inactive: -1.37; (compound concentration: 10 uM) inactive: 0.698.

For `NCCNC(Cc1c[nH]cn1)C(=O)O` (stereo not given), the TEAD-luciferase reporter activity runs as follows: (compound concentration: 200 nM) inactive: 3.54; (compound concentration: 2 uM) inactive: 0.245; (compound concentration: 10 uM) inactive: -0.501.

Turning to `CCOc1ccc(NS(=O)(=O)c2ccc(N)cc2)nn1` [Sulfaethoxypyridazine], the TEAD-luciferase reporter activity reads like this: (compound concentration: 200 nM) inactive: 0.334; (compound concentration: 2 uM) inactive: -1.19; (compound concentration: 10 uM) inactive: 0.319.

Consider `O=c1cc2c(nn1-c1ccc(Cl)cc1)-c1ccccc1S(=O)CC2` (stereo not given), for which the TEAD-luciferase reporter activity was inactive: -1.43 (compound concentration: 200 nM), inactive: 0.463 (compound concentration: 2 uM) and active: 5.53 (compound concentration: 10 uM).

Turning to `NS(=O)(=O)Oc1ccc2c3c(c(=O)oc2c1)CCCCC3`, the TEAD-luciferase reporter activity runs as follows: (compound concentration: 200 nM) inactive: -0.234; (compound concentration: 10 uM) inactive: -0.0894.

Consider `NS(=O)(=O)Oc1ccc2c3c(c(=O)oc2c1)CCCCC3` [Irosustat], for which, under “compound concentration: 2 uM”, the TEAD-luciferase reporter activity was inactive: 3.68.

Take `Oc1nc(O)c2cn[nH]c2n1` [Oxipurinol]: the TEAD-luciferase reporter activity reads like this: (compound concentration: 200 nM) inactive: 0.825; (compound concentration: 2 uM) inactive: -1.05; (compound concentration: 10 uM) inactive: -1.12.

For `Cc1ccc(NC(=O)c2cc(C(F)(F)F)cc(C(F)(F)F)c2)cc1Nc1nccc(-c2cccnc2)n1`, the TEAD-luciferase reporter activity by setting is: (compound concentration: 200 nM) inactive: -0.616; (compound concentration: 2 uM) inactive: 0.298; (compound concentration: 10 uM) inactive: -1.22.

For the compound `O=C(O)CCC/C=C(\c1ccc(CCNS(=O)(=O)c2ccc(Cl)cc2)cc1)c1cccnc1`, the TEAD-luciferase reporter activity is, setting by setting: (compound concentration: 200 nM) inactive: -1.1; (compound concentration: 2 uM) inactive: -1.44; (compound concentration: 10 uM) inactive: 3.5.

With `CS(=O)(=O)c1ccc(-c2cc(Cl)nn2-c2ccccc2)cc1`, the TEAD-luciferase reporter activity is, setting by setting: (compound concentration: 200 nM) inactive: 0.0371; (compound concentration: 2 uM) inactive: 1.26; (compound concentration: 10 uM) inactive: 0.833.

Consider `c1ccc2c(c1)N=C(N1CCNCC1)c1ccccc1S2`, for which the TEAD-luciferase reporter activity is inactive: -2.52 (compound concentration: 200 nM), inactive: -0.754 (compound concentration: 2 uM) and inactive: 2.93 (compound concentration: 10 uM).

For the compound `CCC(C/C=C/c1ccccc1)(c1ccccc1)N(C)CC1CC1` (stereo not given) [Igmesine hydrochloride], the TEAD-luciferase reporter activity (compound concentration: 200 nM) was inactive: -0.438, the TEAD-luciferase reporter activity (compound concentration: 2 uM) was inactive: -0.719 and the TEAD-luciferase reporter activity (compound concentration: 10 uM) was inactive: 3.99.

For the compound `CCOC(=O)n1ccn(C)c1=S`, the TEAD-luciferase reporter activity is inactive: -0.772 (compound concentration: 200 nM) and inactive: -0.000129 (compound concentration: 10 uM).

On to `CCOC(=O)n1ccn(C)c1=S` [Carbimazole], for which the TEAD-luciferase reporter activity (compound concentration: 2 uM) is inactive: -1.15.

With `Cc1c(NC(C)C)c(=O)n(-c2ccccc2)n1C`, the TEAD-luciferase reporter activity (compound concentration: 200 nM) was inactive: -2.77, the TEAD-luciferase reporter activity (compound concentration: 2 uM) is inactive: 1.16 and the TEAD-luciferase reporter activity (compound concentration: 10 uM) is inactive: -0.986.

With `CCOCn1cc(F)c(=O)n(C(=O)c2cccc(C(=O)Oc3nc(OC(=O)c4ccccc4)ccc3C#N)c2)c1=O`, the TEAD-luciferase reporter activity is, setting by setting: (compound concentration: 200 nM) inactive: -0.538; (compound concentration: 2 uM) inactive: -0.19; (compound concentration: 10 uM) inactive: -0.695.

Regarding `O=C(O)c1ccccc1OP(=O)(O)O` [fosfosal], the TEAD-luciferase reporter activity by setting is: (compound concentration: 200 nM) inactive: -0.904; (compound concentration: 2 uM) inactive: -0.925; (compound concentration: 10 uM) inactive: -0.696.

As for `Nc1nc(N)c2nc(CCc3ccc(C(=O)N[C@@H](CCC(=O)O)C(=O)O)cc3)cnc2n1` [10-Deazaaminopterin], the TEAD-luciferase reporter activity was inactive: -1.79 (compound concentration: 200 nM), inactive: -1.09 (compound concentration: 2 uM) and inactive: -0.552 (compound concentration: 10 uM).

In the case of `CC(C)(O)c1ccccc1CC[C@@H](SCC1(CC(=O)[O-])CC1)c1cccc(/C=C/c2ccc3sc(Cl)c(Cl)c3n2)c1`, the TEAD-luciferase reporter activity is, setting by setting: (compound concentration: 200 nM) inactive: -1.29; (compound concentration: 2 uM) inactive: -0.115; (compound concentration: 10 uM) inactive: 0.113.

Consider `COc1ccc(C2CNC(=O)C2)cc1OCCCN1CCC(C(=O)c2ccc(F)cc2)CC1` (stereo not given), for which the TEAD-luciferase reporter activity was inactive: -0.789 (compound concentration: 200 nM), inactive: 1.85 (compound concentration: 2 uM) and inactive: 1.44 (compound concentration: 10 uM).
